The other results are listed elsewhere or left out.
Compound: Cc1ccc(-n2nc(C(C)(C)C)cc2NC(=O)Nc2ccc(OCCN3CCOCC3)c3ccccc23)cc1 [doramapimod]
Experiment: log2 fold change, soluble protein after heating vs DMSO (PISA); higher = thermal stabilisation; K562 cells, 10 uM, 30 min; active = over 0.2 and 3.5 SD of the protein, either way, in both replicates (recomputed)
In short: (§1)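 Soluble protein was defined as the supernatant after 21,000xg for 90 min. It came from K562 cells at 2×10^6 cells/mL given 10 μM compound for 30 min, heated in aliquots for 3 min across 48°C-58°C, pooled, and extracted in PBS with 0.5% NP-40 at 4°C, and was quantified by TMTpro 16plex LC-MS/MS with equalised channel sums. Thermal stability against control samples, from duplicates, is reported as log2 fold change.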

Sequences of proteins named here, by UniProt entry; tags and fusion partners are left off. A change or cut given only in a name is not applied to a line headed by its entry.
UniProt Q15067: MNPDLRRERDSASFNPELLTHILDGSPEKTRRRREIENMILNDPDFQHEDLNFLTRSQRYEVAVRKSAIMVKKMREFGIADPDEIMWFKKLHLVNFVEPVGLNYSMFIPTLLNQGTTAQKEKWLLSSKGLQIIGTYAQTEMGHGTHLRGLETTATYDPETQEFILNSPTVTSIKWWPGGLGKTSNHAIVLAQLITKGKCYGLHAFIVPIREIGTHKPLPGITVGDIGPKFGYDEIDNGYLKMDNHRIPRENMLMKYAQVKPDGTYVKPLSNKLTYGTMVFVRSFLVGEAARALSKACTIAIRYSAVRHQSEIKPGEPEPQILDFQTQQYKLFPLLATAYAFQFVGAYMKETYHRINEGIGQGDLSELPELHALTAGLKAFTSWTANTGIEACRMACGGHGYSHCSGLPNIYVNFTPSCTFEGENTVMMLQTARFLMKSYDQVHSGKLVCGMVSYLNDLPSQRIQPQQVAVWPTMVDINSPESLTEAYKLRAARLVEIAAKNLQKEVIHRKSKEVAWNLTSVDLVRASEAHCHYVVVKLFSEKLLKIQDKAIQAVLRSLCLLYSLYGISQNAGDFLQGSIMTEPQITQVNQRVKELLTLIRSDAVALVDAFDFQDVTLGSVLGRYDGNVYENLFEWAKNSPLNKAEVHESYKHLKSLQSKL
UniProt P24752: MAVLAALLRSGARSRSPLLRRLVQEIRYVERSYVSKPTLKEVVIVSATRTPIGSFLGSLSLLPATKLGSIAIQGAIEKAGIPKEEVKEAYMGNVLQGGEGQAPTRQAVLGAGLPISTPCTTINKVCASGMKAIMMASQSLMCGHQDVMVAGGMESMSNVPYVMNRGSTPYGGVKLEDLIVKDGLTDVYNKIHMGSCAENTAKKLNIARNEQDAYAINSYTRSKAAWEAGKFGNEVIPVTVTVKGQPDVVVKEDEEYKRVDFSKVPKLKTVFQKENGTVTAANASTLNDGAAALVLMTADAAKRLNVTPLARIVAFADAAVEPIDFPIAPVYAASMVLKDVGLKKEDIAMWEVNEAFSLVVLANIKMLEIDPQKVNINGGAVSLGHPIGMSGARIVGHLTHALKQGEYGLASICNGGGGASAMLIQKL
UniProt P16219: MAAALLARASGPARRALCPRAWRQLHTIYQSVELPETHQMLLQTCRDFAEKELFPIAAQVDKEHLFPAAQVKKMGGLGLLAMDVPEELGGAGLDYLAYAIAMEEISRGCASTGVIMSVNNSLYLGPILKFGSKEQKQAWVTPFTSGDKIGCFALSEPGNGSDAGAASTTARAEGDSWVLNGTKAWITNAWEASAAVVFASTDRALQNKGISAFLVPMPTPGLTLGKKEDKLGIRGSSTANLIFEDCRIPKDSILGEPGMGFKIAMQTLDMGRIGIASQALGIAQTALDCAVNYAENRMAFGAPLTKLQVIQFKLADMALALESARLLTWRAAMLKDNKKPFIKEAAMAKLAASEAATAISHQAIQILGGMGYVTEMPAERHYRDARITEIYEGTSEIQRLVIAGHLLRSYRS
UniProt Q9NZ32, whole entry, looked up: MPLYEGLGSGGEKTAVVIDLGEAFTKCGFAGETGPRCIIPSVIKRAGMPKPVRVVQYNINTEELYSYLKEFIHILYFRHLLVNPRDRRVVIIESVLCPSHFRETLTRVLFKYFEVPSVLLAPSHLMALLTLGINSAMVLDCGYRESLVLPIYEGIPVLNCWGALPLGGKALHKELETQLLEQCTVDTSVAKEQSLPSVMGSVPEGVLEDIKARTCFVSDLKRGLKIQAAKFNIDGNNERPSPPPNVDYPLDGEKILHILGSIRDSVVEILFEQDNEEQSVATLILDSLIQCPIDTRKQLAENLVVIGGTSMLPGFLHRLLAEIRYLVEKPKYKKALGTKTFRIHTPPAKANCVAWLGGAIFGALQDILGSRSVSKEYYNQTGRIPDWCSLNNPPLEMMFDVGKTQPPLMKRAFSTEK
UniProt P78536: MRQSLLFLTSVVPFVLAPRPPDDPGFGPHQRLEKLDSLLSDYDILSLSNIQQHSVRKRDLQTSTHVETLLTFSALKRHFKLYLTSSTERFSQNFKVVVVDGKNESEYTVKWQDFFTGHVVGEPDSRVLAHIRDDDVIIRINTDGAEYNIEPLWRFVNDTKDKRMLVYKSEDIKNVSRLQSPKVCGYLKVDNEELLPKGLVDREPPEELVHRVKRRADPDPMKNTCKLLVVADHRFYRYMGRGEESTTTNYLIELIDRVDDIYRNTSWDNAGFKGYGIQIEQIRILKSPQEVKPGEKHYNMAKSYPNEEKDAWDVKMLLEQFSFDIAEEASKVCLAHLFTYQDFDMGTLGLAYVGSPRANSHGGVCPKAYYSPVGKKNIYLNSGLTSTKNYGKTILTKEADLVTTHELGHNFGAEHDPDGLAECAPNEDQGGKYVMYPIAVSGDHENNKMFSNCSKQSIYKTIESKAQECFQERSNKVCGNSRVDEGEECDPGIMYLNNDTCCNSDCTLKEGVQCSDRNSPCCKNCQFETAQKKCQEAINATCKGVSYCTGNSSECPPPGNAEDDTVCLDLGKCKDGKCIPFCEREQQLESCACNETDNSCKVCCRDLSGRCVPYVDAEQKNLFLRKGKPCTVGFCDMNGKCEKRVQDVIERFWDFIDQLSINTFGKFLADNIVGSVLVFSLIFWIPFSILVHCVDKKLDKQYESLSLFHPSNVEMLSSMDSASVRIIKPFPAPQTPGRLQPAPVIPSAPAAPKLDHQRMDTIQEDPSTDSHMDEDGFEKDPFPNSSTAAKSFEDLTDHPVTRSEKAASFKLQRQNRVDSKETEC
UniProt Q9GZN1, whole entry, looked up: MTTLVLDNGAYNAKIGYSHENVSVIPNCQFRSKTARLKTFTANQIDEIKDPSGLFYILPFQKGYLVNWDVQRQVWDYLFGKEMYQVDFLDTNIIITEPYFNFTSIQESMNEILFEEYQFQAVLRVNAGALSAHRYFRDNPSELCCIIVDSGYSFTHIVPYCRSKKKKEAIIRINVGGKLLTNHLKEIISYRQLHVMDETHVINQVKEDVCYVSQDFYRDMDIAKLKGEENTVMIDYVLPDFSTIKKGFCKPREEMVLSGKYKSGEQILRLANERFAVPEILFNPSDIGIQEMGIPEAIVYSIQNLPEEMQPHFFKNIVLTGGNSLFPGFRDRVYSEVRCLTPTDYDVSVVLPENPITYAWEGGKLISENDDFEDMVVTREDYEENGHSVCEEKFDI
UniProt P21399: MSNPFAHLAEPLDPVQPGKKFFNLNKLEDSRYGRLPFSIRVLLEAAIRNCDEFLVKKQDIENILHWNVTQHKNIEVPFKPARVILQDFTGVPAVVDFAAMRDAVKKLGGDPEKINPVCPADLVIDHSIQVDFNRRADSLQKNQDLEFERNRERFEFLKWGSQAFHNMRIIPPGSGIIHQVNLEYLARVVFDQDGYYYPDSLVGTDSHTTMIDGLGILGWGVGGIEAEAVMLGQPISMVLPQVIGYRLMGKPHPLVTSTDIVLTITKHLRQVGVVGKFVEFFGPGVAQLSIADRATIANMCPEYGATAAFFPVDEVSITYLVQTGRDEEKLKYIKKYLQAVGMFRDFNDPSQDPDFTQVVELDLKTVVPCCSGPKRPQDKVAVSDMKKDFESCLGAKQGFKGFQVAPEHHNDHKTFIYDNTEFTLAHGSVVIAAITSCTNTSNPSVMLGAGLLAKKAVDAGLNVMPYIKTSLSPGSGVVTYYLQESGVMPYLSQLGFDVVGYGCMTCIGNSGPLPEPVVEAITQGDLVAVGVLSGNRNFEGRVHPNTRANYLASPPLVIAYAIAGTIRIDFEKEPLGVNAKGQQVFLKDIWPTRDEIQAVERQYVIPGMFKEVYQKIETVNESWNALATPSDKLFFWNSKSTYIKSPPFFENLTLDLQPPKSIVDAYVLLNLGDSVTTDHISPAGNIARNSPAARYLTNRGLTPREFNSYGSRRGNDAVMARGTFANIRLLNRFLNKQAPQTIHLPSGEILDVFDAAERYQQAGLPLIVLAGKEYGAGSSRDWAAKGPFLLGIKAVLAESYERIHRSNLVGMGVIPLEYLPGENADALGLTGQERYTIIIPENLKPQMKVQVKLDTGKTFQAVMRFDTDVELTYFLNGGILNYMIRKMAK
UniProt P09110: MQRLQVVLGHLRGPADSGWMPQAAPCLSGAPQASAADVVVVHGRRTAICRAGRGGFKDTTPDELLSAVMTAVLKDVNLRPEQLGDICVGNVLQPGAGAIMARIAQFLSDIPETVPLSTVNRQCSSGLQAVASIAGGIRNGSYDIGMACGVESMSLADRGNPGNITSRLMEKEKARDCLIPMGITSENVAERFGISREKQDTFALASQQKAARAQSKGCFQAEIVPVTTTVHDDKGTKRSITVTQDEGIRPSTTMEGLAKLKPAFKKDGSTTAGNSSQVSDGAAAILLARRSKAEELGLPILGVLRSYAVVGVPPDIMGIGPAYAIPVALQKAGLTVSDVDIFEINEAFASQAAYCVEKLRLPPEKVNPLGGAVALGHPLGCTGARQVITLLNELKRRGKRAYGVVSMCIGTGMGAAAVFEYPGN
UniProt Q7Z6V5: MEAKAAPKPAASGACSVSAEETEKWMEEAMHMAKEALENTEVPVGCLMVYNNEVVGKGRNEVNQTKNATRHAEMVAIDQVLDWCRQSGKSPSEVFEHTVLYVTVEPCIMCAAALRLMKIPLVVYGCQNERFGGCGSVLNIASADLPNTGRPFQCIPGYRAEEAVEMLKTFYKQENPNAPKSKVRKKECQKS
UniProt O43707, whole entry, looked up: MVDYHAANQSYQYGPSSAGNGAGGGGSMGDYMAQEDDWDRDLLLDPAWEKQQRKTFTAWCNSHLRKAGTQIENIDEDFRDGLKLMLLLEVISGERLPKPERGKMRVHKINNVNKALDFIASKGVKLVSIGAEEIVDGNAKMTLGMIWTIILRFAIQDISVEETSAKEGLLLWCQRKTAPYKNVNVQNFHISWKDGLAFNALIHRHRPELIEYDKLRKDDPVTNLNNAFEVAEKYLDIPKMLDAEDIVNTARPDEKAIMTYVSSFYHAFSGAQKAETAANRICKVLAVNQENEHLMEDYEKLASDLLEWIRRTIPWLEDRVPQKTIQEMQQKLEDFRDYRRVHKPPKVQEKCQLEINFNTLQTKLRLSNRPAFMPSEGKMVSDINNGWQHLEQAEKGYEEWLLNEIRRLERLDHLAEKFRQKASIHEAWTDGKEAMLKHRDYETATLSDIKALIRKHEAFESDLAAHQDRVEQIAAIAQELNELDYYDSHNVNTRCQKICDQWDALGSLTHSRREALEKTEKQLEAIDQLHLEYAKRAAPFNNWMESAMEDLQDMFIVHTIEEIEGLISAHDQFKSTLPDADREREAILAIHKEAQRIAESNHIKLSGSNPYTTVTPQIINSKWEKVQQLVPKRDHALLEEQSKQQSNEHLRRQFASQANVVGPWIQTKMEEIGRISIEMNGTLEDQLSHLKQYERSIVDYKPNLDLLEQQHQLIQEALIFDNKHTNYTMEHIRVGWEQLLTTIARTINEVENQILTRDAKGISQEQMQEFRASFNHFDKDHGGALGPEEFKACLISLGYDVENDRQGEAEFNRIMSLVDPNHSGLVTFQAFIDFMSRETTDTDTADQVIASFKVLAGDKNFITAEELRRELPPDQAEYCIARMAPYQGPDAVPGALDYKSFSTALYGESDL
UniProt P49588, whole entry, looked up: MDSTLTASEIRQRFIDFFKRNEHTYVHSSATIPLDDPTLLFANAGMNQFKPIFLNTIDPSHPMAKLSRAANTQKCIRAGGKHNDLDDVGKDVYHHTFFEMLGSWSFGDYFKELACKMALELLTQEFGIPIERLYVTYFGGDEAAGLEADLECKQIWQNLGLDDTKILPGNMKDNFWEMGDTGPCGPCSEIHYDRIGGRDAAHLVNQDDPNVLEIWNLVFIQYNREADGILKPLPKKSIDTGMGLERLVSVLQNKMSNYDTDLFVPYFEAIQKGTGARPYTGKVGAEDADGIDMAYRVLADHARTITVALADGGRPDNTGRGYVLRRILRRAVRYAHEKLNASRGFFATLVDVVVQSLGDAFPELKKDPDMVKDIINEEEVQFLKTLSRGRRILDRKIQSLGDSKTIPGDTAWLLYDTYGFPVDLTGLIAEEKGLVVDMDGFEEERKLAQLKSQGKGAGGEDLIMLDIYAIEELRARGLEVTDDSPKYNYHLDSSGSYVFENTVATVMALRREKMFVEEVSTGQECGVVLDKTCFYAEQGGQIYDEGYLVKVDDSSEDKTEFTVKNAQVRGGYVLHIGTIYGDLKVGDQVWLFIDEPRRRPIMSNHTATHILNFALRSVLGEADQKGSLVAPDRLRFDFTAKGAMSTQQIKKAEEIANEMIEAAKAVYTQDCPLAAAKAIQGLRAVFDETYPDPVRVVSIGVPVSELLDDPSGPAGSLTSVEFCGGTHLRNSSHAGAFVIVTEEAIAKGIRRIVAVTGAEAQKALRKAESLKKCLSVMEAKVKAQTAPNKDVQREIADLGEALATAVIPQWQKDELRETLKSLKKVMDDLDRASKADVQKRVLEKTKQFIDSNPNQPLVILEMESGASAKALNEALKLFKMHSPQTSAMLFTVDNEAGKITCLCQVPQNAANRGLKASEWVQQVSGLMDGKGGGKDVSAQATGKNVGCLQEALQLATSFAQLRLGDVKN

Row | Target | log2 fold change
1 | ACACA isoform 4 (UniProt Q13085) | inactive: 0.167
2 | ACSS2 isoform 2 (UniProt Q9NR19) | inactive: -0.052
3 | ACOX1 isoform 2 (UniProt Q15067) | inactive: 0
4 | ACAT1 (UniProt P24752) | inactive: -0.041
5 | ACTR2 (UniProt P61160) | inactive: -0.005
6 | ACADS (UniProt P16219) | inactive: 0.005
7 | ADAM10 (UniProt O14672) | inactive: 0.018
8 | ABHD12 isoform 2 (UniProt Q8N2K0) | inactive: 0.031
9 | ADAR isoform 4 (UniProt P55265) | inactive: 0.028
10 | ACTR10 (UniProt Q9NZ32) | inactive: 0.02
11 | ABLIM1 (UniProt O14639) | inactive: -0.054
12 | ABCF3 (UniProt Q9NUQ8) | inactive: 0.141
13 | ABRAXAS2 (UniProt Q15018) | inactive: -0.061
14 | ACTA1 (UniProt P68133) | inactive: -0.005
15 | ADAM17 (UniProt P78536) | inactive: 0.04
16 | A2M (UniProt P01023) | inactive: 0.172
17 | ACADSB (UniProt P45954) | inactive: 0.006
18 | ACOT8 (UniProt O14734) | inactive: 0.024

Row | Target | log2 fold change
19 | ABCC4 (UniProt O15439) | inactive: 0.004
20 | ACAD8 (UniProt Q9UKU7) | inactive: 0.016
21 | ACY1 (UniProt Q03154) | inactive: 0.005
22 | AASDHPPT (UniProt Q9NRN7) | inactive: -0.031
23 | ACTL6A (UniProt O96019) | inactive: -0.068
24 | ABCB7 isoform 2 (UniProt O75027) | inactive: -0.016
25 | ADAL (UniProt Q6DHV7) | inactive: -0.043
26 | ACTR6 (UniProt Q9GZN1) | inactive: 0.056
27 | ACO1 (UniProt P21399) | inactive: -0.016
28 | ACTR3 (UniProt P61158) | inactive: -0.014
29 | ABCD3 (UniProt P28288) | inactive: 0.004
30 | ACAA1 (UniProt P09110) | inactive: -0.005
31 | ABCE1 (UniProt P61221) | inactive: -0.044
32 | ADAT2 (UniProt Q7Z6V5) | inactive: -0.026
33 | ABCF1 (UniProt Q8NE71) | inactive: 0.12
34 | ACTN4 (UniProt O43707) | inactive: -0.016
35 | AARS (UniProt P49588) | inactive: -0.005
36 | ACTL8 (UniProt Q9H568) | inactive: 0.055

Compound: Cc1ccc(C(=O)N(CCCN)[C@@H](c2nc3cc(Cl)ccc3c(=O)n2Cc2ccccc2)C(C)C)cc1 [ispinesib]
Experiment: as above
In short: as §1

Row | Target | log2 fold change
37 | ACACA isoform 4 (UniProt Q13085) | inactive: -0.205
38 | ACSS2 isoform 2 (UniProt Q9NR19) | inactive: 0.014
39 | ACOX1 isoform 2 (UniProt Q15067) | inactive: 0.092
40 | ACAT1 (UniProt P24752) | inactive: -0.004
41 | ACTR2 (UniProt P61160) | inactive: 0.043
42 | ACADS (UniProt P16219) | inactive: 0.066
43 | ADAM10 (UniProt O14672) | inactive: -0.001
44 | ABHD12 isoform 2 (UniProt Q8N2K0) | inactive: -0.114
45 | ADAR isoform 4 (UniProt P55265) | inactive: -0.012
46 | ACTR10 (UniProt Q9NZ32) | inactive: 0.064
47 | ABLIM1 (UniProt O14639) | inactive: 0.073
48 | ABCF3 (UniProt Q9NUQ8) | inactive: -0.291
49 | ABRAXAS2 (UniProt Q15018) | inactive: 0.004
50 | ACTA1 (UniProt P68133) | inactive: 0.048
51 | ADAM17 (UniProt P78536) | inactive: -0.003
52 | A2M (UniProt P01023) | inactive: -0.054
53 | ACADSB (UniProt P45954) | inactive: 0.105
54 | ACOT8 (UniProt O14734) | inactive: 0.006

Row | Target | log2 fold change
55 | ABCC4 (UniProt O15439) | inactive: 0.082
56 | ACAD8 (UniProt Q9UKU7) | inactive: 0.111
57 | ACY1 (UniProt Q03154) | inactive: -0.003
58 | AASDHPPT (UniProt Q9NRN7) | inactive: 0.113
59 | ACTL6A (UniProt O96019) | inactive: 0.034
60 | ABCB7 isoform 2 (UniProt O75027) | inactive: -0.15
61 | ADAL (UniProt Q6DHV7) | inactive: 0.09
62 | ACTR6 (UniProt Q9GZN1) | inactive: 0.021
63 | ACO1 (UniProt P21399) | inactive: 0.086
64 | ACTR3 (UniProt P61158) | inactive: 0.071
65 | ABCD3 (UniProt P28288) | inactive: 0.167
66 | ACAA1 (UniProt P09110) | inactive: 0.048
67 | ABCE1 (UniProt P61221) | inactive: 0.033
68 | ADAT2 (UniProt Q7Z6V5) | inactive: 0.048
69 | ABCF1 (UniProt Q8NE71) | inactive: -0.091
70 | ACTN4 (UniProt O43707) | inactive: 0.027
71 | AARS (UniProt P49588) | inactive: 0.003
72 | ACTL8 (UniProt Q9H568) | inactive: 0.05

Source: the supplement of paper PMC10849652
